# The list shows a part of the results. Many values rest on one well or one pass, so single values are uncertain.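 Imaging used 1,536-well plates; nuclei positive for cleaved PARP by antibody were divided by total DNA-stained nuclei to yield the apoptosis fraction. Doses for screening kept most cells viable, and cell lines differ markedly in resting and induced cleaved-PARP levels.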
# System: A101D
# Experiment: cleaved PARP positive nuclei fraction relative to DMSO control; melanoma cells; higher = more apoptosis
# Settings: library dose: low library concentration; 72 h
row,Structure (SMILES),cleaved PARP positive nuclei fraction [%]
1,"O=C(/C=C/c1cccnc1)NCCCCC1CCN(C(=O)c2ccccc2)CC1 + CC(C)(C)c1cnc(CSc2cnc(NC(=O)C3CCNCC3)s2)o1 [SNS-032] (first compound 0.01 µM, partner dose 0.01 µM)",45.7
2,"Cc1cn(-c2cc(NC(=O)c3ccc(C)c(Nc4nccc(-c5cccnc5)n4)c3)cc(C(F)(F)F)c2)cn1 [nilotinib] + O=C(CCCCCCC(=O)Nc1ccccc1)NO [vorinostat] (first compound 0.2 µM, partner dose 0.08 µM)",265
3,"N#CC[C@H](C1CCCC1)n1cc(-c2ncnc3[nH]ccc23)cn1 [ruxolitinib] + O=C(O)c1ccc(-c2c[nH]c3ncc(-c4ccccc4)cc23)cc1C1CCCC1 [GSK650394] (first compound 1 µM, partner dose 0.16 µM)",37
4,"O=C(Nc1cc(C(F)(F)F)cc(C(F)(F)F)c1)c1cc(Cl)ccc1O + CO[C@@H]1[C@H](N(C)C(=O)c2ccccc2)C[C@H]2O[C@]1(C)n1c3ccccc3c3c4c(c5c6ccccc6n2c5c31)C(=O)NC4 [Midostaurin] (first compound 0.016 µM, partner dose 0.08 µM)",91
5,"N#CC[C@H](C1CCCC1)n1cc(-c2ncnc3[nH]ccc23)cn1 [ruxolitinib] + Cc1ccc(NC(=O)c2cccc(N(C)C)c2)cc1NC(=O)c1ccc(O)cc1 [ZM336372] (first compound 1 µM, partner dose 2 µM)",68.2
6,"N#CC[C@H](C1CCCC1)n1cc(-c2ncnc3[nH]ccc23)cn1 [ruxolitinib] + CC1(C)NC(=O)N(c2ccc([N+](=O)[O-])c(C(F)(F)F)c2)C1=O [nilutamide] (first compound 1 µM, partner dose 1 µM)",79.7
7,"CC[C@]1(O)C[C@H]2CN(CCc3c([nH]c4ccccc34)[C@@](C(=O)OC)(c3cc4c(cc3OC)N(C=O)[C@H]3[C@@](O)(C(=O)OC)[C@H](OC(C)=O)[C@]5(CC)C=CCN6CC[C@]43[C@@H]65)C2)C1 [vincristine] + O=C(Nc1cccc(Cl)c1)Nc1ncc(CCNc2ncnc3ccsc23)s1 [SNS314] (first compound 0.0001 µM, partner dose 0.0008 µM)",52.9
8,"Cc1cn(-c2cc(NC(=O)c3ccc(C)c(Nc4nccc(-c5cccnc5)n4)c3)cc(C(F)(F)F)c2)cn1 [nilotinib] + CC(C)(C)c1cnc(CSc2cnc(NC(=O)C3CCNCC3)s2)o1 [SNS-032] (first compound 0.2 µM, partner dose 0.01 µM)",225
9,"COc1cc([C@@H]2c3cc4c(cc3[C@@H](O[C@@H]3O[C@@H]5CO[C@@H](C)O[C@H]5[C@H](O)[C@H]3O)[C@H]3COC(=O)[C@H]23)OCO4)cc(OC)c1O [etoposide] + NC(=O)Nc1cc(-c2cccc(F)c2)sc1C(=O)N[C@H]1CCCNC1 [AZD7762] (first compound 0.02 µM, partner dose 0.02 µM)",106
10,"Cc1cc(Nc2cc(N3CCN(C)CC3)nc(Sc3ccc(NC(=O)C4CC4)cc3)n2)n[nH]1 [Tozasertib] + Cn1cncc1[C@@](N)(c1ccc(Cl)cc1)c1ccc2c(c1)c(-c1cccc(Cl)c1)cc(=O)n2C [tipifarnib] (first compound 0.006 µM, partner dose 0.01 µM)",90.3
11,"Cc1ccc(Nc2nccc(N(C)c3ccc4c(C)n(C)nc4c3)n2)cc1S(N)(=O)=O [Pazopanib] + Cn1cncc1[C@@](N)(c1ccc(Cl)cc1)c1ccc2c(c1)c(-c1cccc(Cl)c1)cc(=O)n2C [tipifarnib] (first compound 0.4 µM, partner dose 0.01 µM)",25.4
12,"Cc1cc(Nc2cc(N3CCN(C)CC3)nc(Sc3ccc(NC(=O)C4CC4)cc3)n2)n[nH]1 [Tozasertib] + Cc1ccc(NC(=O)c2cccc(N(C)C)c2)cc1NC(=O)c1ccc(O)cc1 [ZM336372] (first compound 0.006 µM, partner dose 2 µM)",40.2
13,"CC[C@]1(O)C[C@H]2CN(CCc3c([nH]c4ccccc34)[C@@](C(=O)OC)(c3cc4c(cc3OC)N(C=O)[C@H]3[C@@](O)(C(=O)OC)[C@H](OC(C)=O)[C@]5(CC)C=CCN6CC[C@]43[C@@H]65)C2)C1 [vincristine] + CC1(C)NC(=O)N(c2ccc([N+](=O)[O-])c(C(F)(F)F)c2)C1=O [nilutamide] (first compound 0.0001 µM, partner dose 1 µM)",108
14,"N#CC[C@H](C1CCCC1)n1cc(-c2ncnc3[nH]ccc23)cn1 [ruxolitinib] + CO[C@@H]1[C@H](N(C)C(=O)c2ccccc2)C[C@H]2O[C@]1(C)n1c3ccccc3c3c4c(c5c6ccccc6n2c5c31)C(=O)NC4 [Midostaurin] (first compound 1 µM, partner dose 0.08 µM)",85.9
15,"CCCCCCCCCCCCCCCCCCOP(=O)([O-])OC1CC[N+](C)(C)CC1 [Perifosine] + COc1cc2c(Oc3ccc4[nH]c(C)cc4c3F)ncnc2cc1OCCCN1CCCC1 [cediranib] (first compound 0.4 µM, partner dose 0.4 µM)",45
16,"N#CC[C@H](C1CCCC1)n1cc(-c2ncnc3[nH]ccc23)cn1 [ruxolitinib] + COc1cc2c(Oc3ccc4[nH]c(C)cc4c3F)ncnc2cc1OCCCN1CCCC1 [cediranib] (first compound 1 µM, partner dose 0.4 µM)",34.7
17,"O=C(/C=C/c1cccnc1)NCCCCC1CCN(C(=O)c2ccccc2)CC1 + O=C(O)c1ccc(-c2c[nH]c3ncc(-c4ccccc4)cc23)cc1C1CCCC1 [GSK650394] (first compound 0.01 µM, partner dose 0.16 µM)",50.2
18,"Cc1cc(Nc2cc(N3CCN(C)CC3)nc(Sc3ccc(NC(=O)C4CC4)cc3)n2)n[nH]1 [Tozasertib] + NCC(=O)Nc1ccc(-n2nc(C(F)(F)F)cc2-c2ccc3c(ccc4ccccc43)c2)cc1 [OSU03012] (first compound 0.006 µM, partner dose 1 µM)",41.6
19,"Cc1cn(-c2cc(NC(=O)c3ccc(C)c(Nc4nccc(-c5cccnc5)n4)c3)cc(C(F)(F)F)c2)cn1 [nilotinib] + CO[C@@H]1[C@H](N(C)C(=O)c2ccccc2)C[C@H]2O[C@]1(C)n1c3ccccc3c3c4c(c5c6ccccc6n2c5c31)C(=O)NC4 [Midostaurin] (first compound 0.2 µM, partner dose 0.08 µM)",185
20,"Cc1ccc(Nc2nccc(N(C)c3ccc4c(C)n(C)nc4c3)n2)cc1S(N)(=O)=O [Pazopanib] + CN(NC(=O)CC(=O)NN(C)C(=S)c1ccccc1)C(=S)c1ccccc1 [STA4783] (first compound 0.4 µM, partner dose 0.006 µM)",51.4
21,"COc1cc([C@@H]2c3cc4c(cc3[C@@H](O[C@@H]3O[C@@H]5CO[C@@H](C)O[C@H]5[C@H](O)[C@H]3O)[C@H]3COC(=O)[C@H]23)OCO4)cc(OC)c1O [etoposide] + Cc1ccc(NC(=O)c2cccc(N(C)C)c2)cc1NC(=O)c1ccc(O)cc1 [ZM336372] (first compound 0.02 µM, partner dose 2 µM)",88.7
22,"O=C(/C=C/c1cccnc1)NCCCCC1CCN(C(=O)c2ccccc2)CC1 + CN(NC(=O)CC(=O)NN(C)C(=S)c1ccccc1)C(=S)c1ccccc1 [STA4783] (first compound 0.01 µM, partner dose 0.006 µM)",228

# A different layout for part of the listing above.
row	Structure (SMILES)	cleaved PARP positive nuclei fraction [%]
11	Cc1ccc(Nc2nccc(N(C)c3ccc4c(C)n(C)nc4c3)n2)cc1S(N)(=O)=O [Pazopanib] + Cn1cncc1[C@@](N)(c1ccc(Cl)cc1)c1ccc2c(c1)c(-c1cccc(Cl)c1)cc(=O)n2C [tipifarnib] (first compound 0.4 µM, partner dose 0.01 µM)	25.4
13	CC[C@]1(O)C[C@H]2CN(CCc3c([nH]c4ccccc34)[C@@](C(=O)OC)(c3cc4c(cc3OC)N(C=O)[C@H]3[C@@](O)(C(=O)OC)[C@H](OC(C)=O)[C@]5(CC)C=CCN6CC[C@]43[C@@H]65)C2)C1 [vincristine] + CC1(C)NC(=O)N(c2ccc([N+](=O)[O-])c(C(F)(F)F)c2)C1=O [nilutamide] (first compound 0.0001 µM, partner dose 1 µM)	108

# Source: the supplement of paper PMC4604168 (melanoma cell lines)
